In paper PMC8379256, “A xanthene derivative, DS20060511, attenuates glucose intolerance by inducing skeletal muscle-specific GLUT4 translocation in mice” (Communications Biology, 2021):
Where “and” joins values, the source holds several entries; their conditions need not be identical. Equal values may be shown once. The source gives many values for each of these; only a part stands here.

Tested on: C57BL/6 mice
Experiment: Indirect calorimetry and exercise endurance under stepwise treadmill running
Assay type: in vivo, mouse
Settings: for Fat oxodation / Gluocse oxdation: 30 mg/kg, individual mice 1-7; for CO2 Production (VCO2) / O2 Consumption (VO2) / Respiratory quotient: DS20060511 30 mg/kg, individual mice 1-7, Fig. 5a
Experimental: The mice were acclimatized to the treadmill by allowing them to run at 10 m min^−1 for 10 min on the day before the test. On the day of the test, the mice received oral administration of 30 mg kg^−1 of DS20060511 or vehicle 15 min before they were made to run. The treadmill was started at a velocity of 10 m min^−1, with the speed increased stepwise by 2 m min^−1 every 3 min, to assess the exercise endurance capacity as described previously. Measurements of the oxygen consumption (VO2) and exhaled carbon dioxide (VCO2) under treadmill running were conducted with the ARCO-2000 magnetic-type mass spectrometric calorimeter (ARCO System, Kashiwa, Japan) connected to the treadmill chamber (MB-2000, ARCO System). The RER was calculated as the VCO2/VO2 ratio and the substrate utilization rates were calculated using Frayn’s formula[51]: rate of glucose oxidation = 4.585VCO2 − 3.226VO2; rate of fat oxidation = 1.695VO2 − 1.701VCO2. The exercise endurance capacity under treadmill running was determined by measuring the time from the start to the time until the mice ceased to run because of exhaustion, which was defined as remaining on the shocker plate for more than 10 sec. Immediately after the exercise, the blood glucose and lactate levels were measured using Glutest Every and Lactate Pro2 (ARKRAY, Kyoto, Japan), respectively, in blood samples collected from the tail vein.

COc1ccc2c(C)c(C(=O)O)ccc2c1C1C2=C(CC(C)(C)CC2=O)OC2=C1C(=O)CC(C)(C)C2 [DS20060511]
Fat oxodation (0 min): 42.7 mg/min/kg and 29.8 mg/min/kg and 47.9 mg/min/kg and 33.8 mg/min/kg and 28.5 mg/min/kg and 27.7 mg/min/kg and 40.5 mg/min/kg
Gluocse oxdation (0 min): 18.2 mg/min/kg and 55.1 mg/min/kg and 66.4 mg/min/kg and 36.8 mg/min/kg and 34.2 mg/min/kg and 39.5 mg/min/kg and 42.0 mg/min/kg
Fat oxodation (1 min): 45.5 mg/min/kg and 32.2 mg/min/kg and 46.7 mg/min/kg and 25.3 mg/min/kg and 20.1 mg/min/kg and 30.2 mg/min/kg and 37.1 mg/min/kg
Gluocse oxdation (1 min): 18.2 mg/min/kg and 57.0 mg/min/kg and 57.7 mg/min/kg and 34.5 mg/min/kg (2×) and 40.4 mg/min/kg and 38.9 mg/min/kg
Fat oxodation (16 min): 38.4 mg/min/kg and 25.4 mg/min/kg and 30.2 mg/min/kg and 38.0 mg/min/kg and 21.2 mg/min/kg
Gluocse oxdation (16 min): 36.7 mg/min/kg and 23.9 mg/min/kg and 103.8 mg/min/kg and 50.6 mg/min/kg and 64.1 mg/min/kg
Fat oxodation (17 min): 38.9 mg/min/kg and 22.8 mg/min/kg and 33.5 mg/min/kg and 17.9 mg/min/kg and 29.7 mg/min/kg and 34.5 mg/min/kg and 23.7 mg/min/kg
Gluocse oxdation (17 min): 48.6 mg/min/kg and 86.9 mg/min/kg and 38.0 mg/min/kg and 37.9 mg/min/kg and 99.3 mg/min/kg and 64.2 mg/min/kg and 65.1 mg/min/kg
Fat oxodation (18 min): 40.3 mg/min/kg and 23.4 mg/min/kg and 38.3 mg/min/kg and 26.5 mg/min/kg and 28.8 mg/min/kg and 33.0 mg/min/kg and 27.0 mg/min/kg
Gluocse oxdation (18 min): 37.9 mg/min/kg and 72.9 mg/min/kg and 38.8 mg/min/kg and 44.8 mg/min/kg and 96.1 mg/min/kg and 56.1 mg/min/kg and 63.5 mg/min/kg
Fat oxodation (19 min): 38.2 mg/min/kg and 24.7 mg/min/kg and 37.3 mg/min/kg and 29.3 mg/min/kg and 31.6 mg/min/kg and 29.6 mg/min/kg and 25.9 mg/min/kg
Gluocse oxdation (19 min): 37.9 mg/min/kg (2×) and 65.0 mg/min/kg and 47.7 mg/min/kg and 99.0 mg/min/kg and 59.5 mg/min/kg and 62.0 mg/min/kg
Fat oxodation (20 min): 42.4 mg/min/kg and 24.3 mg/min/kg and 36.1 mg/min/kg and 27.9 mg/min/kg and 29.4 mg/min/kg and 31.1 mg/min/kg and 29.1 mg/min/kg
Gluocse oxdation (20 min): 46.0 mg/min/kg and 64.7 mg/min/kg and 41.4 mg/min/kg and 45.0 mg/min/kg and 88.2 mg/min/kg and 50.3 mg/min/kg and 68.8 mg/min/kg
Fat oxodation (21 min): 43.1 mg/min/kg (2×) and 26.1 mg/min/kg and 36.5 mg/min/kg and 28.8 mg/min/kg and 31.2 mg/min/kg and 29.3 mg/min/kg
Gluocse oxdation (21 min): 45.1 mg/min/kg and 69.4 mg/min/kg and 17.2 mg/min/kg and 44.6 mg/min/kg and 91.1 mg/min/kg and 48.9 mg/min/kg and 61.3 mg/min/kg
Fat oxodation (22 min): 40.9 mg/min/kg and 25.6 mg/min/kg and 37.2 mg/min/kg and 27.2 mg/min/kg and 24.3 mg/min/kg and 32.2 mg/min/kg and 32.3 mg/min/kg
Gluocse oxdation (22 min): 42.7 mg/min/kg and 66.9 mg/min/kg and 72.1 mg/min/kg and 40.1 mg/min/kg and 86.1 mg/min/kg and 55.3 mg/min/kg and 60.9 mg/min/kg
Fat oxodation (23 min): 41.8 mg/min/kg and 24.9 mg/min/kg and 36.6 mg/min/kg and 28.2 mg/min/kg and 26.0 mg/min/kg and 32.9 mg/min/kg and 33.1 mg/min/kg
Gluocse oxdation (23 min): 46.5 mg/min/kg and 66.1 mg/min/kg and 71.0 mg/min/kg and 35.9 mg/min/kg and 82.6 mg/min/kg and 57.0 mg/min/kg and 70.8 mg/min/kg
Fat oxodation (24 min): 33.9 mg/min/kg and 23.5 mg/min/kg and 37.4 mg/min/kg and 29.0 mg/min/kg and 25.1 mg/min/kg and 30.0 mg/min/kg and 34.8 mg/min/kg
Gluocse oxdation (24 min): 45.3 mg/min/kg and 67.2 mg/min/kg and 83.8 mg/min/kg and 41.3 mg/min/kg and 80.6 mg/min/kg and 69.0 mg/min/kg and 78.3 mg/min/kg
Fat oxodation (25 min): 36.1 mg/min/kg and 21.7 mg/min/kg and 35.1 mg/min/kg and 28.1 mg/min/kg and 23.9 mg/min/kg and 34.1 mg/min/kg and 36.7 mg/min/kg
Gluocse oxdation (25 min): 50.1 mg/min/kg and 70.7 mg/min/kg and 85.4 mg/min/kg and 36.9 mg/min/kg and 76.2 mg/min/kg and 59.5 mg/min/kg and 96.1 mg/min/kg
Fat oxodation (26 min): 28.4 mg/min/kg and 20.3 mg/min/kg and 29.6 mg/min/kg and 24.4 mg/min/kg and 21.1 mg/min/kg and 32.4 mg/min/kg and 38.4 mg/min/kg
Gluocse oxdation (26 min): 66.4 mg/min/kg and 74.7 mg/min/kg and 93.6 mg/min/kg and 41.2 mg/min/kg and 67.8 mg/min/kg and 88.6 mg/min/kg and 105.2 mg/min/kg
Fat oxodation (27 min): 24.4 mg/min/kg and 22.5 mg/min/kg and 34.6 mg/min/kg and 27.5 mg/min/kg and 19.7 mg/min/kg and 33.1 mg/min/kg and 40.1 mg/min/kg
Gluocse oxdation (27 min): 58.3 mg/min/kg and 72.5 mg/min/kg and 93.5 mg/min/kg and 42.8 mg/min/kg and 66.4 mg/min/kg and 103.0 mg/min/kg and 99.1 mg/min/kg
Fat oxodation (28 min): 26.1 mg/min/kg and 22.8 mg/min/kg and 34.8 mg/min/kg and 23.3 mg/min/kg and 25.3 mg/min/kg and 31.3 mg/min/kg and 43.2 mg/min/kg
Gluocse oxdation (28 min): 54.9 mg/min/kg and 81.2 mg/min/kg and 82.8 mg/min/kg and 41.8 mg/min/kg and 58.6 mg/min/kg and 98.4 mg/min/kg and 101.3 mg/min/kg
Fat oxodation (29 min): 24.1 mg/min/kg and 23.3 mg/min/kg and 32.2 mg/min/kg and 29.5 mg/min/kg and 26.1 mg/min/kg and 29.8 mg/min/kg and 41.3 mg/min/kg
Gluocse oxdation (29 min): 53.7 mg/min/kg and 64.9 mg/min/kg and 83.3 mg/min/kg and 43.6 mg/min/kg and 59.4 mg/min/kg and 112.5 mg/min/kg and 100.4 mg/min/kg
Fat oxodation (30 min): 24.2 mg/min/kg and 23.4 mg/min/kg and 32.6 mg/min/kg and 26.5 mg/min/kg and 27.5 mg/min/kg and 26.4 mg/min/kg and 42.4 mg/min/kg
Gluocse oxdation (30 min): 63.6 mg/min/kg and 71.9 mg/min/kg and 80.1 mg/min/kg and 55.3 mg/min/kg and 50.6 mg/min/kg and 117.8 mg/min/kg and 102.1 mg/min/kg
CO2 Production (VCO2) (0 min): 89.5 ml/min/kg (2×) and 73.3 ml/min/kg and 81.2 ml/min/kg and 88.5 ml/min/kg and 66.4 ml/min/kg and 82.5 ml/min/kg
O2 Consumption (VO2) (0 min): 109.7 ml/min/kg and 108.8 ml/min/kg and 106.7 ml/min/kg (2×) and 83.0 ml/min/kg and 115.0 ml/min/kg and 91.2 ml/min/kg
Respiratory quotient (0 min): 0.78 and 0.80 (2×) and 0.74 and 0.81 and 0.84 and 0.77
CO2 Production (VCO2) (1 min): 94.2 ml/min/kg and 74.4 ml/min/kg and 79.5 ml/min/kg and 78.1 ml/min/kg (2×) and 71.1 ml/min/kg and 68.3 ml/min/kg
O2 Consumption (VO2) (1 min): 107.3 mL/min/kg and 93.3 mL/min/kg and 83.2 mL/min/kg and 86.4 mL/min/kg and 100.3 mL/min/kg and 121.4 mL/min/kg and 93.7 mL/min/kg
Respiratory quotient (1 min): 0.78 (2×) and 0.79 (2×) and 0.74 and 0.84 and 0.85
CO2 Production (VCO2) (16 min): 80.6 mL/min/kg and 93.3 mL/min/kg and 69.8 mL/min/kg and 71.4 mL/min/kg and 106.9 mL/min/kg
O2 Consumption (VO2) (16 min): 87.9 mL/min/kg and 94.1 mL/min/kg and 119.8 mL/min/kg and 124.8 mL/min/kg and 97.3 mL/min/kg
